Percent effect of library compounds

Amino acid sequences for entries named in this document (tags omitted). Residues count along the entry.
UniProt A4I591, 1-473: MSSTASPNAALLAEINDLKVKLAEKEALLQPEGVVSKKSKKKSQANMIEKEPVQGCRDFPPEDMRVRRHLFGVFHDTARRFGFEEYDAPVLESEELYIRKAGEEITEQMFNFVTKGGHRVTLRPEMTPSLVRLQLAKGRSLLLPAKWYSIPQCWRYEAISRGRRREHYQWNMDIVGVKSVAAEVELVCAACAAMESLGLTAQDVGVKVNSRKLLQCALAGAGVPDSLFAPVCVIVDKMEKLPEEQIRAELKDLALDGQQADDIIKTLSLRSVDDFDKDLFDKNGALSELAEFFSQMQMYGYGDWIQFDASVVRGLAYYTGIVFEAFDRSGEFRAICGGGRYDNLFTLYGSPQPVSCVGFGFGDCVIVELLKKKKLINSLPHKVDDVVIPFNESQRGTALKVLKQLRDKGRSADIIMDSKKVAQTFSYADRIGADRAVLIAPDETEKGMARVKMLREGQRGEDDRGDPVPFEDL
UniProt Q4DA54, 1-478: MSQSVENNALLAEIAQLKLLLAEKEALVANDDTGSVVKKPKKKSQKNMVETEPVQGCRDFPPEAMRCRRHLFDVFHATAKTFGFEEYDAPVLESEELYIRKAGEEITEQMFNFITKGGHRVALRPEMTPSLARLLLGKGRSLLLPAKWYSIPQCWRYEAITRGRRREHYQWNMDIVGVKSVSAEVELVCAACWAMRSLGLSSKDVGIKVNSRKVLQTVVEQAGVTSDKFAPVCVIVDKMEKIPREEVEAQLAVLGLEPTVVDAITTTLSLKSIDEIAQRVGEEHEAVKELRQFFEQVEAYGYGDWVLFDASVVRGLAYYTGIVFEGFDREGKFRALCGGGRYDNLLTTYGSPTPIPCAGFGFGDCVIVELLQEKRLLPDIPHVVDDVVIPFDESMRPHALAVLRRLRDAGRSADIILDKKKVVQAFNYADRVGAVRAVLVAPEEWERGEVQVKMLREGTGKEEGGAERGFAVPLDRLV

The filed quantity is “Percent Effect” (%).
The controls that fix the scale are not given in the record; negative values are as filed.
The compounds are a random part of those screened.

A: 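Enzyme assay of histidyl-tRNA synthetase; the read-out is not stated. Target: Histidine-tRNA ligase, Leishmania infantum (UniProt A4I591). Concentration: 30 µM. Higher reads as stronger inhibition (inferred: compounds with an IC50 in retests scored well above the rest). The assay is labelled LdHisRS but filed under L. infantum. Size under these conditions: about 69,000 compounds, about 410 of them at 50% or above in at least one test.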
B: 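Histidine-tRNA ligase, Trypanosoma cruzi CL Brener (UniProt Q4DA54). Enzyme assay of histidyl-tRNA synthetase; the read-out is not stated. Compounds at 30 µM. Direction is inferred from retests: higher values go with stronger inhibition. Size under these conditions: about 69,000 compounds, about 31 of them at 50% or above in at least one test.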

CC(C)NC(=O)N1CCc2onc(C(=O)NCCN(C)C)c2C1 gave A: 3.509%; B: 2.151%.
COc1ccccc1NCC(=O)Nc1cnn(Cc2ccccn2)c1 gave A: 6.667%; B: 4.902%.
CC(NC(=O)NCCCO)c1ccc2c(c1)NC(=O)CO2 (configuration not stated) gave A: 8.475%; B: 2.857%.
COCc1cc(CNc2cnn(CC(F)F)c2)ccc1OC gave A: 20.62%; B: 2.312%.
O=C(c1cccnc1)N1CCC2(CC1)CCN(c1ccsc1)C2=O gave A: -4.854%; B: 0%.
COc1nc2c(cc1C(=O)NCc1nc(CSC)no1)CCC2 gave A: 8.73%; B: 3.529%.
O=C(c1ccccn1)N1Cc2nccn2CC(COc2cccnc2)C1 (configuration not stated) gave A: 11.32%; B: 4.865%.
CC(C)CN1CCC(NCCNc2cccnc2)CC1 gave A: 9.756%; B: 4.327%.
Clc1ccc(Cc2nc(CNCCn3cccn3)cs2)cc1 gave A: 19.35%; B: 10.88%.
Cc1csc(C2CCCCN2C(=O)CN(C)C2CC2)n1 (configuration not stated) gave A: 8.108%; B: -1.128%.
Cc1occc1C(=O)N1CCC2(CCCN(c3ncc(F)cn3)C2)C1 (configuration not stated) gave A: 11.82%; B: 9.524%.
NC(=O)C1CCCCN1C(=O)c1ccc(Br)s1 (configuration not stated) gave A: 11.76%; B: -1.587%.
CNC(=O)CNCc1c[nH]nc1-c1cc2ccccc2o1 gave A: 20.35%; B: 2.212%.
Cc1cc2c(=O)n3c(nc2s1)CCN(Cc1cnc(C(C)C)nc1)CC3 gave A: 2.857%; B: 3.226%.
O=C1CC2(CCCNC2)C(=O)N1Cc1cccc(F)c1 (configuration not stated) gave A: 7.692%; B: -0.9709%.
O=C(CN1CCS(=O)(=O)CC1)NC1CCCOc2ccccc21 (configuration not stated) gave A: 11.29%; B: 8.442%.
Cc1ccc(OCC(C)NC(=O)CN(C)c2ccc(C#N)cn2)cc1 (configuration not stated) gave A: 21.95%; B: 10.1%.
COCC1Cn2nnc(-c3cnn(C)c3)c2CN1Cc1ccco1 (configuration not stated) gave A: 25%; B: -6.952%.
CC(C)C(=O)N1CCCC1c1nc(N(C)C)ncc1-c1ccc(Cl)cc1 (configuration not stated) gave A: 7.042%; B: 6.923%.
Cc1csc(N2CCN(C(=O)C(C)n3cncn3)CC2)n1 (configuration not stated) gave A: 3.636%; B: 1.17%.
O=C(O)c1nnn(Cc2cccc(C(F)(F)F)c2)c1-c1cccnc1 gave A: 13.59%; B: 8.197%.
COCCN1C[C@H]2CC[C@@]3(N=C(C)N(CC4CC4)C3=O)[C@H]2C1 gave A: 17.31%; B: 1.604%.
O=C(c1cccnc1)N(Cc1ccncc1)C1CC1 gave A: -5.435%; B: -3.96%.
CCN(CC)C(=O)[C@@H]1C[C@H](n2cc(-c3ccccn3)nn2)CN1 gave A: 28.95%; B: 0.5587%.
CCN1CCC2(CC1)CN(C(=O)c1cccnc1)c1ccc(Cl)cc12 gave A: 23.76%; B: 4.523%.
CNC(=O)CCc1cccc(C2CCCN(c3cc(C)ncn3)C2)n1 (configuration not stated) gave A: 6.711%; B: 2%.
CCC(C)(C)NC(=O)c1ccc(NC(=O)NCc2cc(C)on2)cc1 gave A: 8.036%; B: 10.34%.
COc1cc(N2CCC3(CCN(Cc4nccs4)CC3)C2)ncn1 gave A: 8.108%; B: 4.42%.
Cc1nn(CC(=O)O)c2nccc(-c3ccc(F)cc3)c12 gave A: 16.48%; B: 9.901%.
Cc1nc(C)n(C2CCCN(C(=O)c3csnn3)C2)n1 (configuration not stated) gave A: 11.9%; B: -0.7519%.
CCNS(=O)(=O)c1ccc(C)c(C(=O)N(C)Cc2ccco2)c1 gave A: 10.58%; B: 2.439%.
Cc1nn(C)c(C)c1C1CCCN1C(=O)CCc1cscn1 (configuration not stated) gave A: 1.515%; B: -1.515%.
OC1CCN(c2ccc(CNc3nc4ccccc4s3)cc2F)CC1 gave A: 14.71%; B: 3.704%.
CCn1c(CN(C)C)nnc1C1CCN(c2ccnc(C)c2)CC1 gave A: 16.35%; B: 4.878%.
Cc1ccn(CCC(=O)NCCc2ccco2)n1 gave A: 5.479%; B: 6%.
O=C(NCc1ccc(F)cc1)N1CCN(CC(O)C2CC2)CC1 (configuration not stated) gave A: 10.96%; B: 12%.
Cc1cccc(CO[C@@H]2CC[C@H]3[C@H]2OCCN3Cc2ccsc2)n1 gave A: 20.75%; B: 2.703%.
Cc1ccc(S(=O)(=O)NC2CNC(=O)C2)cc1C (configuration not stated) gave A: 19.23%; B: 0.8264%.
FC(F)(F)Sc1ccccc1NCc1nc(C2CC2)no1 gave A: -2%; B: 3.614%.
COc1ccsc1C(=O)N1CCCC(n2nc(C)nc2C)C1 (configuration not stated) gave A: -37.08%; B: 4.511%.
Cc1cc(C(=O)CN2CCN(c3ncccn3)CC2)c(C)n1C(C)C gave A: 5.495%; B: 0%.

The last 3 entries again:

| structure | A | B |
|---|---|---|
| `FC(F)(F)Sc1ccccc1NCc1nc(C2CC2)no1` | -2 | 3.614 |
| `COc1ccsc1C(=O)N1CCCC(n2nc(C)nc2C)C1` (configuration not stated) | -37.08 | 4.511 |
| `Cc1cc(C(=O)CN2CCN(c3ncccn3)CC2)c(C)n1C(C)C` | 5.495 | 0 |

From ChEMBL document CHEMBL3988442, “University of Dundee, Small-Polar-MMV Screening Library” (2021).